Here are results for 59 compounds from PubChem BioAssay AID2685 (National Center for Advancing Translational Sciences (NCATS), 2010).

This test in a line: qHTS Assay for Lipid Storage Modulators in Drosophila S3 Cells.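 As to cell number change: cells counted by Cell Tracker Red CMTPX staining in the red channel.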 The following applies: BODIPY lipid droplet fluorescence, 18-24 h; for cell number change: measured here: cell count max response, cells fed with added oleic acid. In short, it runs like this:
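Drosophila S3 cells got compounds at several concentrations plus oleic acid (400 uM solution). Laser-scanning cytometry with 488 nm excitation read lipid droplets at 500-530 nm and cells at 575-640 nm. Percent activity was relative to 20 uM Triacsin C.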
In general terms: Quantitative high-throughput screening tests each substance at several concentrations.

[1] abbreviates: measured here: lipid fluorescence (Fed channel) AC50, cells fed with added oleic acid.
Setting [2] is: measured here: cell number channel AC50, cells fed with added oleic acid.

The other results are listed elsewhere or left out. Further columns of the screen follow, without active or inactive calls. The list favours compounds with an active or inconclusive main result. Words in brackets tell the shape of the fitted curve; partial curves, single points and poor fits give uncertain potencies.

Regarding `COc1ccc(NS(=O)(=O)c2ccc(C)c(NC(=O)NC3CCCCC3)c2)cc1`, the cell number change was determined as 16.3%. Moreover, the AC50 (as a rule, the midpoint of the concentration-response curve, whichever way the signal moves) under setting [1] was 0.461 µM [rising, partial curve, poor fit].
With `N#CCCS(=O)(=O)c1nnnn1-c1ccccc1`, the cell number change is -76.2%. Under setting [2], the AC50 was 23.1 µM [falling, partial curve]. Besides, the AC50 under setting [1] is 20.6 µM [falling, partial curve].
Regarding `Cc1ccc(C2(C)NC(=O)N(CC(=O)Nc3cc(S(=O)(=O)N4CCOCC4)ccc3C)C2=O)cc1` (stereo not drawn), the cell number change worked out at 5.55%. Moreover, under setting [1], the AC50 was 5.8 µM [falling, full curve].
Take `Cc1ccc(NC(=O)CC2S/C(=N/N=C3/NC(=O)CS3)NC2=O)cc1` (stereo not drawn): the cell number change is -33.3%. Further, the AC50 under setting [2] is 1.84 µM [falling, partial curve, poor fit].
For `Cc1[nH]c2ccccc2c1C(=O)C(=O)N1CCN(c2ccccc2Cl)CC1`, the cell number change is 6.6%.
Consider `Cc1cc2cc(CNC(=O)C3CC3)ccc2n1C`, for which the AC50 under setting [1] was 20.6 µM [rising, single point].
With `COc1ccc(-c2nn(-c3ccccc3C)cc2CNC(C)Cn2cncn2)cc1F` (stereo not drawn), the cell number change stood at 25.5%.
As for `COc1ccccc1CN(C)C(=O)CN1CCN(C(=O)c2cccs2)CC1`, the cell number change was -16.4%. Besides, the AC50 under setting [1] is 1.46 µM [falling, partial curve].
On to `COc1ccc(CCn2c(NN)nc3c2c(=O)[nH]c(=O)n3C)cc1`, for which the cell number change is 10%.
For the compound `CCCS(=O)(=O)NCCc1csc(-c2ccc(OC)c(OC)c2)n1`, the cell number change came to 14.9%. Besides, under setting [2], the AC50 was 4.11 µM [rising, single point].
On to `CCOC(=O)C1=C(C)N=c2s/c(=C\c3cccc(OCC(=O)O)c3)c(=O)n2C1c1ccccc1OC` (stereo not drawn), for which the cell number change was -49.9%. The AC50 under setting [2] is 29.1 µM [falling, single point]. Under setting [1], the AC50 is 29.1 µM [falling, single point].
Regarding `CCc1ccc(OCC(=O)N(C)C2CCS(=O)(=O)C2)cc1` (stereo not drawn), the cell number change is 14.4%. The concentration at half-maximal activity (AC50) under setting [1] was 6.51 µM [falling, single point].
As for `COC(=O)c1ccc(Cn2c(O)c(N=O)c3ccccc32)o1`, the cell number change was -8.58%.
On to `CCOc1ccc(NC(=O)c2sc(NC(C)=O)c(C(=O)OC)c2C)cc1`, for which the cell number change came out at 10.9%.
Consider `CN1CCN(C(=O)/C(=C\c2cccnc2)NC(=O)c2cccc(Br)c2)CC1`, for which the cell number change was -0.236%. Moreover, the AC50 under setting [1] is 18.4 µM [rising, partial curve].
As to `CC12CCC(=O)C=C1CCC1C2C(=O)CC2(C)C1CCC2(O)C(=O)CO` (stereo not drawn), the AC50 under setting [1] is 20.6 µM [falling, partial curve].
As to `CCn1c(CC(=O)Nc2ccc(F)cc2)nnc1SCC(=O)NC1=NCCS1`, the cell number change was -4.17%.
For the compound `COc1ccc(C(=O)NC(=S)NC2CCCCC2)cc1`, the cell number change is -2.89%. Further, under setting [1], the AC50 is 2.91 µM [rising, single point].
On to `Cc1noc(C)c1S(=O)(=O)NCc1ccc2c(c1)OCO2`, for which the cell number change is -2.53%.
As for `COCCn1nnnc1C(c1ccc(OC)c(OC)c1)N1CCN(c2nc3ccccc3s2)CC1` (stereo not drawn), the cell number change came out at 2.87%. Under setting [1], the AC50 was 1.84 µM [rising, partial curve].
For the compound `Cc1ccc(OCC(=O)N(Cc2ccc(N(C)C)cc2)C2CCS(=O)(=O)C2)cc1` (stereo not drawn), the cell number change was found to be 40.2%. Also, under setting [2], the concentration at half-maximal activity (AC50) is 18.4 µM [rising, single point]. In addition, the AC50 under setting [1] is 0.116 µM [falling, single point].
On to `Cc1cc(C)c(NC(=O)C[N+](C)(C)CC(O)COc2cccc3ccccc23)c(C)c1` (stereo not drawn), for which the cell number change is 12.4%. Also, the AC50 under setting [2] is 4.61 µM [rising, single point]. Further, under setting [1], the AC50 is 5.17 µM [rising, single point].
With `CN(C)c1ccc(-c2nnn(CC(=O)Nc3ccc4c(c3)OCCO4)n2)cc1`, the cell number change is -24.9%. Under setting [1], the AC50 is 20.6 µM [falling, single point].
Take `Nc1nc(SCc2ccccc2)n[nH]1`: the cell number change is -3.4%.
For the compound `COc1ccccc1OCCNC(=O)CSC(=S)N1CCCC1`, the cell number change was -99.9%. Further, the half-maximal activity concentration (AC50) under setting [2] is 29.1 µM [falling, single point].
Regarding `COc1ccc(Cl)cc1S(=O)(=O)N1CCC(C(=O)N2CCOCC2)CC1`, the cell number change was found to be 5.78%. The AC50 under setting [1] is 3.66 µM [rising, full curve].
As for `CCOC(=O)Cc1csc(NC(=O)c2ccc(Br)o2)n1`, under setting [2], the AC50 is 4.61 µM [falling, single point].
`Cn1c(Oc2ccc(Cl)cc2)c(C=O)c2ccccc21`: the cell number change is -31.2%. In addition, the AC50 under setting [2] was 18.4 µM [falling, single point]. Further, the AC50 under setting [1] was 18.4 µM [falling, single point].
Take `CCCCc1ccc(NC(=O)CSCc2cc(=O)[nH][nH]2)cc1`: the cell number change turned out to be 18.3%. In addition, under setting [1], the half-maximal activity concentration (AC50) was 0.731 µM [rising, single point].
On to `C(=NC12CN3CN(CN(C3)C1)C2)c1ccc2c(c1)OCO2`, for which the AC50 under setting [1] was 20.6 µM [falling, partial curve, poor fit].
Consider `CCCOc1ccc(C(=O)N(CC(C)C)c2c(N)n(Cc3ccccc3)c(=O)[nH]c2=O)cc1`, for which the cell number change was found to be 95%.
`COc1ccc(Cc2nc3ccc(C(=O)N(C)Cc4nccs4)cc3o2)cc1OC`: the cell number change is -64.8%. In addition, under setting [2], the half-maximal activity concentration (AC50) is 18.4 µM [falling, single point]. For the same compound, the AC50 under setting [1] was 5.17 µM [falling, full curve].
For the compound `CN(Cc1ccc(F)cc1)C(=O)c1cc(S(=O)(=O)N2CCCCC2)ccc1N1CCOCC1`, the cell number change stood at 97.4%. In addition, the half-maximal activity concentration (AC50) under setting [2] is 29.1 µM [rising, single point]. In addition, under setting [1], the AC50 was 0.00461 µM [rising, full curve, poor fit].
In the case of `O=C(CCC1CCCCC1)Nc1ccccc1-c1ccccc1`, the cell number change stood at 117%. Besides, the AC50 under setting [2] was 23.1 µM [rising, single point]. The AC50 under setting [1] is 6.51 µM [falling, single point].
For the compound `Cc1cccc(NC(=S)N(CCCN2CCCC2)Cc2cccn2Cc2ccc(Cl)cc2)c1`, the cell number change is -7.38%. Also, the AC50 under setting [2] was 0.731 µM [falling, single point].
For `O=C(CCN1C(=O)c2ccccc2C1=O)NCCN1CCOCC1`, the cell number change is -2.66%.
The same measure, in the same setting: to `CCOC(=O)c1cc2c(C)n(-c3ccc(N(C)C)cc3)c(C)c2cc(C(=O)OCC)c1=O` belongs 7.43%.
With `O=C(CNC(=O)N1CC(=O)Nc2ccccc21)Nc1ccccc1`, the cell number change amounted to 21%. The AC50 under setting [2] was 0.13 µM [rising, full curve, poor fit].
Regarding `O=C1N(c2ccccc2)C(c2ccccc2)N2CCCN12` (stereo not drawn), the cell number change is -48.4%. In addition, the AC50 under setting [2] was 29.1 µM [falling, single point]. The AC50 under setting [1] is 29.1 µM [falling, single point].
For the compound `COc1ccc(-c2nn(-c3ccccc3)cc2C(=O)OCC(=O)c2ccc(C)c([N+](=O)[O-])c2)cc1`, the cell number change stood at 19.7%. For the same compound, the AC50 under setting [2] was 0.651 µM [falling, single point].
In the case of `COc1cccc(/C=C2\SC(=S)N(CC3CCCO3)C2=O)c1` (stereo not drawn), the AC50 under setting [2] is 5.8 µM [rising, single point] and the AC50 under setting [1] is 6.51 µM [rising, partial curve].
Turning to `C=CCc1c(C)nn(CC(=O)O)c1-c1ccccc1`, the cell number change worked out at 11.9%. Besides, the AC50 under setting [1] is 4.11 µM [falling, single point].
For `CS(=O)(=O)N(CC(=O)NCCSCc1cccc(Cl)c1)c1ccc2c(c1)OCO2`, the cell number change is 4.32%. The AC50 under setting [1] was 0.731 µM [falling, single point].
In the case of `CC[n+]1c(C)sc2cc(OC)ccc21`, the cell number change was determined as 11.1%. Moreover, the AC50 under setting [1] was 6.51 µM [falling, single point].
Take `O=C(O)c1ccccc1C(=O)Nc1ccc(Oc2cccc(C(F)(F)F)c2)nc1`: the cell number change stood at 15.9%. The AC50 under setting [1] was 0.0206 µM [rising, full curve, poor fit].
Regarding `On1nnc2ccc3ccccc3c21`, the AC50 under setting [1] was 0.0326 µM [falling, full curve, poor fit].
`CCCCNCCOCCOc1ccc(C)cc1[N+](=O)[O-]`: the cell number change amounted to 108%. For the same compound, the AC50 under setting [2] is 11.6 µM [rising, partial curve]. The AC50 under setting [1] is 29.1 µM [rising, single point].
`CCN(CC)S(=O)(=O)c1ccc(Cl)c(NC(=O)COc2ccc(OC)cc2)c1`: the AC50 runs as follows: under setting [2], 6.51 µM [rising, single point]; under setting [1], 0.366 µM [rising, partial curve].
Regarding `Cc1cccc(N2CCN(C(=S)Nc3ccc4nc(N5CCN(C)CC5)cc(C)c4c3)CC2)c1C`, the cell number change is -27.7%. Besides, the AC50 under setting [1] was 1.84 µM [falling, partial curve].
Regarding `CCN(CC)c1cc(Cl)c2nonc2c1N`, the cell number change is -37.1%. Moreover, the AC50 under setting [2] was 14.6 µM [falling, partial curve]. The AC50 under setting [1] was 20.6 µM [falling, partial curve].
Regarding `COc1ccc(-c2cc(=O)c3ccccc3s2)cc1`, the AC50 under setting [2] is 6.51 µM [rising, single point] and the AC50 under setting [1] was 2.06 µM [falling, partial curve].
Regarding `Cc1c(Cl)c([N+](=O)[O-])nn1CC(=O)NC(C)C1CC2CCC1C2` (stereo not drawn), the cell number change came to 8.36%. In addition, the AC50 under setting [1] was 18.4 µM [falling, partial curve].
For the compound `COc1cc(C(=O)N2CCN(C3CCC(C)CC3)CC2)cc(OC)c1OC` (stereo not drawn), the cell number change was found to be 8.41%. The half-maximal activity concentration (AC50) under setting [1] was 18.4 µM [rising, single point].
Take `O=C(NCC1CCCO1)C(c1cccs1)N(C(=O)c1ccc(-c2ccccc2)[nH]1)C1CCCC1` (stereo not drawn): the cell number change worked out at 4.15%. Further, the AC50 under setting [1] was 29.1 µM [falling, single point].
As for `CCOc1ccccc1N1CCN(C(=O)COc2ccc3c(C)cc(=O)oc3c2)CC1`, the cell number change was -22.4%. Also, under setting [2], the concentration at half-maximal activity (AC50) was 2.06 µM [rising, single point]. In addition, the AC50 under setting [1] was 1.64 µM [rising, single point].
Turning to `CCc1cccc(N(C(=O)c2csnn2)C(C(=O)NC2CCCC2)c2cccnc2)c1` (stereo not drawn), the cell number change was 12.5%. For the same compound, the AC50 under setting [1] was 1.64 µM [rising, partial curve, poor fit].
Regarding `CC1CCN(CCCNC(=O)CN2C(=O)CSc3ccc(S(=O)(=O)N4CCOCC4)cc32)CC1`, the AC50 under setting [1] is 0.00461 µM [falling, full curve, poor fit].
Take `COc1ccccc1-c1nnc(SCC(=O)Nc2nc(-c3ccccc3)cs2)n1C`: the cell number change was 10.8%. The AC50 under setting [1] is 0.517 µM [rising, full curve, poor fit].
Turning to `CC1(C)C2CCC1(C)C(OC(=O)C[n+]1ccccc1)C2` (stereo not drawn), the cell number change was -19.3%. Moreover, under setting [1], the AC50 was 25.9 µM [falling, single point].
